Laboratory results: PubChem BioAssay AID1259254 (NCATS, 2017)
The whole screen tested about 59,000 reagents; shown is an unselected part. In the full data, about 1,550 (2.6%) got an active call. 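G2 share is only a proxy for re-replication; each gene was hit by three separate siRNAs, and active genes were retested.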 Unmarked entries are inactive. The numbers tell different reagents against one gene apart. Not all columns of the deposit are shown. Not given: the amount of reagent.

- Screen: 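Gene knock-downs that lead to re-replication, shown by excess G2 DNA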 (primary screen)
- Cell system: human HCT116 colorectal cancer cells
- Knock-down reagent: single siRNA against human genes
- Time to read-out: 3 days
- Read-out: 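Nuclei stained with Hoechst and imaged; cell-cycle phase assigned by DNA content; G2 share scaled per plate, non-targeting siRNA 0%, GMNN siRNA 100%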
- Scale: G2 robust z-score: higher = more G2 cells, more excess DNA replication
- Hit rule: 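Active siRNAs have a G2 robust z of 5 or more median absolute deviations over the median, which in these data means about 38% or higher of GMNN control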

RNF220 #1 gave G2 robust z-score -0.825. With knock-down of RNF220 #2, the screen gave G2 robust z-score 0.296. RNF220 #3 scored G2 robust z-score 2.35. For EEA1 #1, the values are G2 robust z-score -0.905. For EEA1 #2, the entry reads G2 robust z-score 0.14. EEA1 #3 gave G2 robust z-score -0.712.

ODAPH #1 gave G2 robust z-score 0.328. ODAPH #2 scored G2 robust z-score 0.0115. Knock-down of ODAPH #3 resulted in: G2 robust z-score -0.154. Against NMNAT3 #1, the entry reads G2 robust z-score 0.221. Knock-down of NMNAT3 #2 resulted in: G2 robust z-score 3.84. With knock-down of NMNAT3 #3, the record shows G2 robust z-score -1.07.

Part of the list above, set out differently.
gene,reagent,G2 robust z-score
RNF220,1,-0.825
RNF220,2,0.296
RNF220,3,2.35
EEA1,1,-0.905

More entries follow:
With knock-down of ACOX3 #1, the screen gave G2 robust z-score 1. For ACOX3 #2 the deposit lists G2 robust z-score 0.985. Against ACOX3 #3 the deposit lists G2 robust z-score -0.828. For PCMT1 #1, the values are G2 robust z-score 0.305. PCMT1 #2 scored G2 robust z-score -0.712. Silencing of PCMT1 #3 came out at: G2 robust z-score 0.00927.

CT62 #1 scored G2 robust z-score 3.88. After knock-down of CT62 #2, the record shows G2 robust z-score 0.817. Against CT62 #3, the values are G2 robust z-score -0.762. Against SERPINA6 #1 the deposit lists G2 robust z-score 0.927. For SERPINA6 #2, the entry reads G2 robust z-score -0.393. SERPINA6 #3 showed G2 robust z-score 0.715.
